# Measured values published in PubChem BioAssay AID1347076 (National Center for Advancing Translational Sciences (NCATS), 2019).
# About 13,000 (3.2%) of roughly 400,000 compounds were called active. The shares of active, inactive and inconclusive entries below differ from those in the screen. The call rests on the fitted dose curve; in most records, active means well fitted cell-killing curve with a large enough effect; inconclusive means small, poorly fitted or top-dose-only effect, or effect the other way; inactive means flat fitted curve, though single readings scatter. A potency beside an inconclusive call is a rough fit, not a confirmed value.
# Test: qHTS assay for MDR1-selective chemotherapeutics: Primary screen using the drug-selected MDR subline cells KB-V1; further: nearly all actives have a fitted effect of over 60% in size
# Conditions: KB-V1 MDR cells viability, CellTiter-Glo, 72 h; activity change, negative = cytotoxicity: at 46.1 µM (top of the series)
# Summary of the method: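 Drug-selected KB-V1 cells, grown in DMEM lacking phenol red with 10% FBS, receive compound titrations; after three days at 37 degrees C, surviving cell ATP is quantified by CellTiter-Glo luminescence and responses normalized and curve-fitted.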
# On the % scale 0 is the no-effect control and ±100 the full control effect; potency means the concentration at half of the fitted maximal effect.
Compound,Potency,"activity change, negative = cytotoxicity"
Fc1ccc(CCNc2ncnc3[nH]ncc23)cc1,active: 4.11 µM,
COc1ccc(C2C=C(c3ccccc3)Nc3nc(NC(=O)/C=C/c4ccccc4OC)nn32)cc1 (configuration not stated),,inactive: 5.82%
CC(C)Cn1c(C(C)C)nc([N+](=O)[O-])c1S(=O)(=O)c1ccc(F)cc1,"inconclusive: 18.4 µM [cytotoxic, single point]",
O=C(c1cccc(S(=O)(=O)N2CCc3ccccc3C2)c1)N1CCN(c2ccc(O)cc2)CC1,active: 13 µM,
Cc1ccc(S(=O)(=O)N/N=C\c2ccc(Cl)c([N+](=O)[O-])c2)cc1,,inactive: 0%
Cc1ccc(CN(Cc2ccccc2)C(=S)Nc2ccccc2C)o1,"inconclusive: 13 µM [cytotoxic, partial curve]",
N#Cc1c(NC(=O)CSc2nc3c(c(C(F)(F)F)n2)CCc2ccccc2-3)sc2c1CCCC2,"inconclusive: 18.4 µM [cytotoxic, single point]",
COC(=O)[C@@]12CCCCN1[C@H](c1ccc(-c3ccc(F)cc3)c(OC)c1)[C@H]1C(=O)N(C)C(=O)[C@H]12,"inconclusive: 14.6 µM [cytotoxic, single point]",
Nc1c(S(=O)(=O)c2cc(Cl)ccc2Cl)c2nc3ccccc3nc2n1CCN1CCOCC1,"inconclusive: 20.6 µM [cytotoxic, partial curve, poor fit]",
CC(=O)N1N=C(c2ccco2)CC1c1cc2ccc(C)cc2nc1Cl (configuration not stated),"inconclusive: 20.6 µM [cytotoxic, single point]",
CCc1ccc(S(=O)(=O)c2nnn3c2nc(NC(C)C)c2cc(Cl)ccc23)cc1,,inactive: 6.32%
Cc1cccc(N(CC(=O)N(C)Cc2ccccc2)S(=O)(=O)c2ccccc2)c1C,"inconclusive: 0.82 µM [cytotoxic, full curve]",
CCOc1ccccc1N(CC(=O)NC1CCCC1)S(=O)(=O)c1ccc(C)cc1,"inconclusive: 4.11 µM [cytotoxic, full curve]",
O=C(CN1CCN(CC(=O)Nc2ccccc2Cc2ccccc2)CC1)Nc1ccccc1Cl,"inconclusive: 16.4 µM [cytotoxic, partial curve]",
Cc1cccc([C@@H]2[C@@H]3C(=O)N(Cc4ccccc4)C(=O)[C@@H]3[C@]3(C)C(=O)N(c4cccc(Cl)c4)C(=O)N23)c1,"inconclusive: 29.1 µM [cytotoxic, single point]",
CC(=O)c1cc(-c2ccccc2)n(CCC(=O)NC2CCCCC2)c1C,inactive,
COc1cccc(OCc2cc(C3Nc4ccccc4C(=O)N3c3ccccc3)ccc2OC)c1 (configuration not stated),,inactive: -19%
CNc1ccccc1C(=O)OC(C)C(=O)Nc1ccc(S(=O)(=O)N2CCCC2)cc1 (configuration not stated),"inconclusive: 25.9 µM [cytotoxic, single point]",
O=c1c2c3c(sc2n(CCN2CCOCC2)c(=O)n1Cc1ccco1)CCCCC3,"inconclusive: 25.9 µM [cytotoxic, partial curve, poor fit]",
c1ccc(CN2CCC3(CC2)Nc2ccccc2CO3)cc1,,inactive: -6.59%
COc1ccc(NC(=O)C2CCC(CNc3c(N4CCOCC4)c(=O)c3=O)CC2)cc1Cl (configuration not stated),,inactive: 15.5%
Cc1ccc(S(=O)(=O)NNC(=O)Nc2cccc3ccccc23)cc1,"inconclusive: 18.4 µM [cytotoxic, single point]",
O=C(CN1C(=O)COc2ccccc21)Nc1ccc2c(c1)OCCO2,"inconclusive: 29.1 µM [cytotoxic, single point]",

Compound,Potency,"activity change, negative = cytotoxicity"
CC/C(=C/c1ccccc1)c1cccc2[nH]c3c(OC)cccc3c12,"inconclusive: 32.6 µM [cytotoxic, partial curve, poor fit]",
CCc1cccc2c(C(=O)CN3C(=O)NC4(CCc5ccccc54)C3=O)c[nH]c12 (configuration not stated),"inconclusive: 29.1 µM [cytotoxic, single point]",
Cc1onc(-c2c(F)cccc2Cl)c1C(=O)O/N=C(\N)c1ccc([N+](=O)[O-])o1,"inconclusive: 29.1 µM [cytotoxic, single point]",
CCOC(=O)c1ccc(NC(=O)c2nc[nH]c2C(=O)N[C@@H](CCCCNC(=O)OC(C)(C)C)C(=O)OC(C)(C)C)cc1,"inconclusive: 29.1 µM [cytotoxic, single point]",
COc1ccc(S(=O)(=O)N2CCN(Cc3cccc(F)c3)CC2)cc1,,inactive: 25.4%
COc1ccc(Cn2c(CCC(=O)Nc3ccc(OC)c(Cl)c3)nc3cccnc32)cc1,,inactive: -5.93%
[O-][n+]1c2ccccc2c2n1CCN1CCOC21c1ccc(Cl)cc1 (configuration not stated),,inconclusive: -0.175%
COc1cccc(NC(=O)CN(C)CC(=O)Nc2ccc(C)c(S(=O)(=O)N3CCOCC3)c2)c1,"inconclusive: 23.1 µM [cytotoxic, partial curve, poor fit]",
CCCC(=O)n1nc(-c2cccnc2)nc1NCc1ccccc1,inactive,
CC[n+]1c(C=C2C=C(C)OC(C)=C2)sc2ccccc21,"inconclusive: 20.6 µM [rising, single point]",
Cc1cc(NC(=O)C(C)SCC(=O)OCC(=O)N(Cc2ccccc2)C(C)(C)C)no1 (configuration not stated),,inactive: -12%
N#Cc1ccc(CSc2nnc(COc3ccccc3)n2-c2ccccc2)cc1,"inconclusive: 29.1 µM [cytotoxic, single point]",
CCC(C)(C)NC(=O)C(c1ccc(C)o1)N(Cc1cccs1)C(=O)Cn1nnc2ccccc21 (configuration not stated),"inconclusive: 32.6 µM [cytotoxic, single point]",
O=C(/C=C\Nc1ccc(Br)cc1)c1cccnc1,,inactive: -0.154%
Cc1nn(Cc2ccccc2)c(Cl)c1C(=O)NCCc1ccc(Cl)cc1,"inconclusive: 18.4 µM [cytotoxic, partial curve, poor fit]",
COc1ccc(OC)c(CN2C(=O)c3ccccc3C2c2nnnn2Cc2ccccc2)c1 (configuration not stated),"inconclusive: 5.17 µM [cytotoxic, partial curve]",
COc1ccc(NS(=O)(=O)c2c(C)nc3scc(C)n3c2=O)cc1,,inactive: -12.7%
CC(C)Oc1ccc(CN2CCC2(C)C(=O)Nc2ccc3c(c2)OCO3)cc1 (configuration not stated),active: 18.4 µM,
Cc1ccc(C(=O)N2N=C(CC(C)C)CC2(O)C(F)(F)F)o1 (configuration not stated),,inactive: 1.85%
CCCCNC(=O)CCSc1nc(-c2ccc3c(c2)OCO3)cc(C(F)(F)F)n1,"inconclusive: 3.26 µM [rising, full curve, poor fit]",
CC(C)(C)C1C/C(=C/c2ccco2)C(=O)/C(=C/c2ccco2)C1 (configuration not stated),"inconclusive: 2.59 µM [cytotoxic, partial curve, poor fit]",
CCOC(=O)CSc1nc2ccccc2n1CC(=O)N1CCN(c2ccccc2)CC1,active: 7.31 µM,
C=CCNc1nc2c(c(=O)n(C)c(=O)n2C)n1CCCCCC,active: 1.46 µM,

# A few values from above.
# In Potency, CC/C(=C/c1ccccc1)c1cccc2[nH]c3c(OC)cccc3c12 reads inconclusive: 32.6 µM [cytotoxic, partial curve, poor fit]
# In activity change, negative = cytotoxicity, [O-][n+]1c2ccccc2c2n1CCN1CCOC21c1ccc(Cl)cc1 (configuration not stated) reads inconclusive: -0.175%

# Next part

Compound,Potency,"activity change, negative = cytotoxicity"
Cc1ccc(SC[C@H](C)CN2CC[C@H](O)CCC2=O)cc1,,inactive: -14.9%
COc1cc(Cl)ccc1OCc1cc(C(=O)N2C[C@H]3CC[C@H]2C3)no1,,inactive: -7.7%
CCOC(=O)c1ccc(N2C(=O)c3[nH]nc(-c4ccc(OCC)cc4)c3C2c2cccs2)cc1 (configuration not stated),"inconclusive: 20.6 µM [cytotoxic, single point]",
Cc1cc(-c2ccc(S(=O)(=O)N3CCN(c4ccc(Cl)cc4)CC3)s2)on1,"inconclusive: 25.9 µM [rising, partial curve, poor fit]",
COc1ccc(NC(=O)c2sc3nc4c(c(-c5ccc(OC)cc5)c3c2N)C(=O)CC(C)(C)C4)cc1,,inactive: 10.9%
CCC(=O)Nc1ccc(C(=O)CSc2nc(N)cc(N)n2)cc1,,inactive: 14.3%
Cc1ccc(/C=C/C(=O)Nc2cccc([S+](=O)([O-])Nc3ccccc3F)c2)cc1,"inconclusive: 0.0052 µM [rising, full curve, poor fit]",
CCOC(=O)c1c(-c2ccc(-c3ccccc3)cc2)csc1NC(=O)CNCCN(C)C,"inconclusive: 23.1 µM [cytotoxic, partial curve, poor fit]",
Cc1ccc(S(=O)(=O)N2CCC(C(=O)NCC(C)(C)N3CCOCC3)CC2)c(C)c1,,inactive: 2.3%
CC(C)[C@H](NC(=O)c1ccc([N+](=O)[O-])cc1Cl)C(=O)N1CCN(C/C=C/c2ccccc2)CC1,"inconclusive: 29.1 µM [cytotoxic, single point]",
CCN(C(=O)CSc1nc2nc(C)cc(C)n2n1)c1cccc(C)c1,active: 23.1 µM,
Cc1ccc(NC(=O)CSc2nnc3n2CCCCC3)cc1S(=O)(=O)N1CCOCC1,,inactive: 11.9%
Cc1ccc2nc(/C(C#N)=C\c3ccc(N4CCOCC4)o3)[nH]c2c1,"inconclusive: 2.06 µM [cytotoxic, full curve]",
COc1ccc(S(=O)(=O)N2CCOCC2)cc1NC(=O)COc1cccnc1[N+](=O)[O-],,inactive: 22.7%
CN(CC(O)CN1CCOCC1)S(=O)(=O)O (configuration not stated),"inconclusive: 2.31 µM [rising, partial curve, poor fit]",
CCOC(=O)Cn1ncn(-c2ccc(OC(F)(F)F)cc2)c1=O,"inconclusive: 20.6 µM [rising, single point]",
Cn1cc(C(=O)N/N=C/c2ccc3c(c2)OCO3)c2ccccc21,"inconclusive: 0.58 µM [cytotoxic, partial curve, poor fit]",
Cc1cc(C(=O)NC2CCCc3c2cnn3-c2ccc(C)c(C)c2)nc(C)n1 (configuration not stated),"inconclusive: 0.411 µM [cytotoxic, full curve, poor fit]",
CCc1ccc(NC(=O)Cc2ccc(-n3cccc3)cc2)cc1,"inconclusive: 11.6 µM [rising, partial curve, poor fit]",
COC(=O)/C=C1/S/C(=N/NC(=O)c2ccc(Cl)cc2Cl)NC1=O,,inactive: -8.31%
Cc1cc(/C=C(\C#N)C(=O)NCc2ccccc2)c(C)[nH]1,"inconclusive: 6.51 µM [cytotoxic, partial curve, poor fit]",

# Gathered by group, the entries above with an aryl thioether with sulfur outside any ring.
Compound,Potency,"activity change, negative = cytotoxicity"
N#Cc1c(NC(=O)CSc2nc3c(c(C(F)(F)F)n2)CCc2ccccc2-3)sc2c1CCCC2,"inconclusive: 18.4 µM [cytotoxic, single point]",
N#Cc1ccc(CSc2nnc(COc3ccccc3)n2-c2ccccc2)cc1,"inconclusive: 29.1 µM [cytotoxic, single point]",
CCCCNC(=O)CCSc1nc(-c2ccc3c(c2)OCO3)cc(C(F)(F)F)n1,"inconclusive: 3.26 µM [rising, full curve, poor fit]",
CCOC(=O)CSc1nc2ccccc2n1CC(=O)N1CCN(c2ccccc2)CC1,active: 7.31 µM,
Cc1ccc(SC[C@H](C)CN2CC[C@H](O)CCC2=O)cc1,,inactive: -14.9%
CCC(=O)Nc1ccc(C(=O)CSc2nc(N)cc(N)n2)cc1,,inactive: 14.3%
CCN(C(=O)CSc1nc2nc(C)cc(C)n2n1)c1cccc(C)c1,active: 23.1 µM,
Cc1ccc(NC(=O)CSc2nnc3n2CCCCC3)cc1S(=O)(=O)N1CCOCC1,,inactive: 11.9%
